# Test results published in PubChem BioAssay AID2685 (National Center for Advancing Translational Sciences (NCATS), 2010).
# The campaign covered roughly 320,000 compounds. About 2,100 (0.66%) were called active. The inconclusive results got no clear call from the source; some entries with a clear call stand among them for comparison. Calls come from the whole dose curve; as a rule, active = well fitted inhibition curve with a large enough effect in the signal ratio, with a control signal flat (not every such curve was filed as active); inconclusive = small, poorly fitted or top-dose-only effect, or effect the other way, or a change in a side signal; inactive = flat fitted curve, though single readings scatter; the % refers to the signal ratio. Potencies of inconclusive entries are doubtful fits and often do not repeat.
# Assay: qHTS Assay for Lipid Storage Modulators in Drosophila S3 Cells
# Conditions: BODIPY lipid droplet fluorescence, 18-24 h, cells fed with added oleic acid; lipid storage change, negative = inhibition: at 46.1 µM (top of the series) unless noted
# In short: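 Drosophila S3 cells loaded with oleic acid (400 uM, as added) and compounds at several concentrations; lipid droplets imaged by 488-nm laser-scanning cytometry, 500–530 nm intensity and object ratio to cell channel. Percent activity normalized to 20 uM Triacsin C.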
# % is set by controls: 0 for no effect and ±100 for the full control effect; potency is the fitted concentration of half-maximal effect.
Compound,"lipid storage change, negative = inhibition",Potency,outcome
O=c1[nH]c(CSc2nnc3ccccn23)nc2cc(C(F)(F)F)ccc12,inconclusive: 53.8%,–,–
N#C/C(=C\c1ccc(OCc2ccc(Br)cc2)cc1)C(=O)Nc1cccc(C(=O)O)c1,–,"inconclusive: 29.1 µM [activator, partial curve]",–
Cc1cc(O)c(-c2ccno2)cc1Cl,inconclusive: -18.2%,–,–
C[C@H](NC(N)=O)C(=O)Nc1ccc2c(c1)OCO2,inactive: -4.55%,–,–
COc1ccc(-c2nc3ccccc3n2OC(C)C(=O)O)cc1 (stereo not given),–,"inconclusive: 32.6 µM [falling, single point]",–
COc1ccc(NC(=O)c2ccc(-c3ccccc3)cc2)cc1NS(=O)(=O)c1ccc(F)cc1,inconclusive: 17.3%,–,–
COc1ccc(-c2noc(COc3ccc4c(c3)OCO4)n2)cc1OC,inconclusive: -13.5%,–,–
Cc1cc(NC(=O)CN2CCOCC2)n(-c2nc3ccccc3s2)n1,inconclusive: 19.4%,–,–
CS(=O)(=O)c1ccc(Cl)c(NC(=O)CSc2nnc(C3CC3)n2C2CC2)c1,inconclusive: 59.3%,–,–
CCCCNC(=S)N(C)/N=C/c1ccc(OCC(=O)Nc2c(C)cc(C)cc2C)c(OC)c1,inconclusive: -65.8%,–,–
Cc1ccc(NC(=O)CCN2C(=O)c3ccccc3S2(=O)=O)cc1F,–,"inconclusive: 1.64 µM [activator, full curve]",–
CC1CCCC(C(=O)O)N1C(=O)CCS (stereo not given),inconclusive: -39.3%,–,–
S=C1NC(c2ccccc2)=CC(c2ccccc2)N1 (stereo not given),inconclusive: -29.8%,–,–
Cc1ccc2nc(N3C(=O)C(O)=C(C(=O)c4ccco4)C3c3cccs3)sc2c1 (stereo not given),inconclusive: 21.3%,–,–
COc1cccc(NC(=S)N(CCCN2CCCC(C)C2)Cc2cccs2)c1 (stereo not given),inconclusive: 39.8%,–,–
Cc1ccccc1NC(=O)NC1(C(=O)N2CCC(C(N)=O)CC2)CCCCC1,–,"inconclusive: 6.51 µM [falling, partial curve, poor fit]",–
CCOC(=O)N1CCN(C(=O)CSc2ccc(Cl)cc2)CC1,–,active: 2.59 µM,–
COc1cc(C(C(=O)NC2CCCC2)N(C(=O)c2snc(C(N)=O)c2N)C2CCCC2)cc(OC)c1OC (stereo not given),inconclusive: 30.9%,–,–
O=C(CSc1nc2ccccc2c(=O)n1Cc1ccco1)c1ccccc1,inconclusive: 202%,–,–
CCN1CCCC1CNCc1ccccc1OCc1ccc(F)cc1 (stereo not given),–,–,inactive [at 46.1 µM]
O=C1CSC(c2ccc(Cl)c(Cl)c2)N1c1nccs1 (stereo not given),inconclusive: 12.7%,–,–
O=C(O)CCc1nc2cc(Cl)ccc2n(Cc2ccccc2)c1=O,inconclusive: 5.41%,–,–
COc1ccc(NC(=O)CNC(=O)C23CC4CC(CC(C4)C2)C3)c(OC)c1,inconclusive,–,–
O=C(O)C1CCN(C(=O)NC2CCCCC2)CC1,inconclusive: -52.1%,–,–
COCC(=O)N1CCC(Oc2ccc(C(=O)NCc3cc(C)n(C)n3)cc2)CC1,–,active: 16.4 µM,–

# Look-ups from the results shown:
# In lipid storage change, negative = inhibition, C[C@H](NC(N)=O)C(=O)Nc1ccc2c(c1)OCO2 has the entry inactive: -4.55%
# In lipid storage change, negative = inhibition, O=C1CSC(c2ccc(Cl)c(Cl)c2)N1c1nccs1 (stereo not given) has the entry inconclusive: 12.7%

# (more compounds)

Compound,"lipid storage change, negative = inhibition",Potency,outcome
CC(=O)Nc1ccc(C(=S)NCCCO)cc1,inconclusive: 22.8%,–,–
O=C(N/N=C/c1ccc([N+](=O)[O-])s1)c1cccnc1,–,"inconclusive: 20.6 µM [falling, partial curve]",–
O=C(N/N=C/c1c[nH]c2ccccc12)C1CC1c1ccccc1 (stereo not given),inconclusive: -6.01%,–,–
CC(C)CCNC(=O)c1cc(-c2ccco2)nc2ccccc12,–,"inconclusive: 3.66 µM [rising, single point]",–
C=CCOc1ccc(CN(C)c2ccc(S(=O)(=O)N3CCN(C)CC3)cc2[N+](=O)[O-])cc1,–,"inconclusive: 14.6 µM [falling, single point]",–
COc1ccc(S(=O)(=O)N2CCC(C(=O)NCc3ccncc3)CC2)cc1Cl,–,"inconclusive: 0.259 µM [falling, partial curve, poor fit]",–
O=C(CS(=O)CC(=O)N(c1cccc(F)c1)C(C(=O)NC1CCCCC1)c1ccco1)Nc1ccc(F)cc1 (stereo not given),inconclusive: 18.2%,–,–
O=c1[nH]c(Cn2nnc(-c3ccccc3)n2)nc2scc(-c3ccccc3)c12,inconclusive: 4.91%,–,–
Brc1ccc2oc3c(N4CCOCC4)ncnc3c2c1,inconclusive: 19.5%,–,–
CCc1cccc(CC)c1NC(=O)c1cc(CN2C(=O)c3ccccc3C2=O)ccc1OC,inconclusive: -93.5%,–,–
CCOC(=O)[C@H]1[C@H]2COc3ccc(OC)cc3[C@@H]2N2C(=O)CN(Cc3ccc(F)cc3)C(=O)[C@@]12C,inconclusive: 12.8%,–,–
COc1ccc(-c2n[nH]c(=S)n2-c2ccc(C)cc2C)cc1,inconclusive: 33.4%,–,–
COc1ccc(-c2cc(C(=O)N3CCCCCC3)c3cc(C)ccc3n2)cc1,–,"inconclusive: 23.1 µM [falling, single point]",–
Cc1ccc(S(=O)(=O)N2CCOCC2)cc1C(=O)OCC(=O)Nc1ccc2[nH]c(=O)[nH]c2c1,inconclusive,–,–
Cc1ccc2c(c1)C1CN(C)CCC1N2S(=O)(=O)c1cccc(F)c1 (stereo not given),–,active: 14.6 µM,–
CCCCS(=O)CC(CS(=O)CCCC)OC(=O)c1ccc(C)cc1 (stereo not given),inconclusive: 21.1%,–,–
Cc1cc(C)nc(-n2nc(C)cc2NC(=O)c2cccc(S(=O)(=O)N3CCOCC3)c2)n1,–,"inconclusive: 0.517 µM [activator, full curve, poor fit]",–
COC(=O)CSc1nc(NCC(C)C)nc(N2CCOCC2)n1,inconclusive: 25.3%,–,–
CCC(=O)NNC(=O)CCC(=O)Nc1ccccc1,inconclusive: 4.4%,–,–
COc1ccc(N2CCN(c3ccc(NC(=O)NN)cc3)CC2)cc1,–,"inconclusive: 29.1 µM [activator, single point]",–
CC(C)c1ccc(S(=O)(=O)N2CCC(C(=O)N3CCC3)CC2)cc1,inconclusive: 23.9%,–,–
COC(=O)CSc1nsc(SCC(=O)OC)n1,inconclusive: 17.2%,–,–
CC1CCCC(NC(=O)c2ccc3c(c2)NC(=O)CS3)C1C (stereo not given),–,"inconclusive: 29.1 µM [falling, single point]",–
Cc1csc(SCC(=O)N(C)CC(=O)Nc2ccccc2Cl)n1,inconclusive: 18%,–,–
CCN1C(=O)c2ccccc2Sc2ccc(C(=O)NCCCN(CC(C)C)CC(C)C)cc21,–,"inconclusive: 1.46 µM [falling, partial curve]",–
